The test concerns the target rN12-S1 recombinant protein (M13 phage) (UniProt P00533). In words: ELISA, rN12-S1 coated at 1.0 mg/L.

No constants are given. Whether binding was seen depends on the method and setting. Some entries that bind do so weakly or less than the wild type.

B1: monoclonal antibody 12H23 (antibody, V domains shown)
VH: DVQLQESGPGLVKPSQSLSLTCTVTAYSVTSDYAWNWIRQFPGNKLEWMGYISYSGTTRYNPSLKSRISITRDTSKNQFFLQLNSMTAEDTATYYCSRQGRGFPYWGQGTLVTVSA
VL: DILMTQSPSSMSVSLGDTVSITCHASQDINSNIGWLQQKPGKSFKGLIYHGTNLEDGVPSRFSGSGSGADYSLTISSLESEDFADYYCVQYAQFPWTFGGGTKLEIKR
notes: also called murine monoclonal antibody 12H23; clone 12H23
On to B1, for which the binding result is on record as “binds”.

The record behind these values is patent US20130039920A1 (SHANGHAI CANCER INSTITUTE, published 2013).
